Results as given in article PMC5389439.
These are yes or no findings as the source states them, for the method shown. In cells and extracts the contact can be indirect. Some binding calls cover weakened binding; strength is not graded here. For part of these data: Where a sequence is shown, tags or fusion partners need not be part of it.

Sequences of proteins named here, by UniProt entry; tags and fusion partners are left off.
UniProt Q62296: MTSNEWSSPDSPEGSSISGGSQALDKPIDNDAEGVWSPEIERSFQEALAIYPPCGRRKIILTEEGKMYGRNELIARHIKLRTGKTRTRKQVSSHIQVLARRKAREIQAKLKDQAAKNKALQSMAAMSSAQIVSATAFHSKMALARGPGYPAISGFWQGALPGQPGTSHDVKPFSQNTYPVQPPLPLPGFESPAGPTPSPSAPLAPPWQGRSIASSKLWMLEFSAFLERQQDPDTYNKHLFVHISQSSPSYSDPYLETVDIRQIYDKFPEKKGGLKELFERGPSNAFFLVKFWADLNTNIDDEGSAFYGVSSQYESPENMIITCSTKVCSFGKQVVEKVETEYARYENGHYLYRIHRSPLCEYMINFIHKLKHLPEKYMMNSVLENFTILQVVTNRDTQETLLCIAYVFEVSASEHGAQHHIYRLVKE
UniProt Q08943: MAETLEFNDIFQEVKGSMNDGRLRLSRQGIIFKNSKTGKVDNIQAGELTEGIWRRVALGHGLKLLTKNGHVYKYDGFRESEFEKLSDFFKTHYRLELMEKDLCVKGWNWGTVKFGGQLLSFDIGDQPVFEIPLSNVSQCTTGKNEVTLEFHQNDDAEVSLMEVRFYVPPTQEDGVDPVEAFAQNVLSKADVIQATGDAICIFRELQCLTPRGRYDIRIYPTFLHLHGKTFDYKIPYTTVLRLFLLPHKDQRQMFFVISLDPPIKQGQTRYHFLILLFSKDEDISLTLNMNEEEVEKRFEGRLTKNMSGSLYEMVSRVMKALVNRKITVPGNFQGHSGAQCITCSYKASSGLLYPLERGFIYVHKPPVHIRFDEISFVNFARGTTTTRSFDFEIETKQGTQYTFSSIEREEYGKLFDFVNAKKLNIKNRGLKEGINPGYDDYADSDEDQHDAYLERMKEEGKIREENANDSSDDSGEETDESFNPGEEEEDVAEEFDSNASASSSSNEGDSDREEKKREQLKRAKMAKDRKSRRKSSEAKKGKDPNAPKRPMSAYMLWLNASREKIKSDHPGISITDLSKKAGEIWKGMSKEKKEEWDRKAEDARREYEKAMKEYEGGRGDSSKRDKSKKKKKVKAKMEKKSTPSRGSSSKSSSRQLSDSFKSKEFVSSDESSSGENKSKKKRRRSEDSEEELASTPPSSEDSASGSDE
UniProt P46938: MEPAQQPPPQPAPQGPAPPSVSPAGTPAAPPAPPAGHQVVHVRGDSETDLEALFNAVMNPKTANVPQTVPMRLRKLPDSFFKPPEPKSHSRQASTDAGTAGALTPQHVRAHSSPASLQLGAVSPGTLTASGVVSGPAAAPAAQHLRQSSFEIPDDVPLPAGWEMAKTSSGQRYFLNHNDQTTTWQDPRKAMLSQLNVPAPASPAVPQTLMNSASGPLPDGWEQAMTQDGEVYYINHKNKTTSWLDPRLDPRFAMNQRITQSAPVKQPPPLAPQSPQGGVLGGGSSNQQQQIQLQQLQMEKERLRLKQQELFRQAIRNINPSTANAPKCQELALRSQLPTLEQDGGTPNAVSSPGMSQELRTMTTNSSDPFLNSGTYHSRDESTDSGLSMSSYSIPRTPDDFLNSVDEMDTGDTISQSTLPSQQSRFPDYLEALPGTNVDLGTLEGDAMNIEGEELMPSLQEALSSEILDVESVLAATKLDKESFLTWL

Experiments:
[1] = biological target: Tead4, endogenous in mouse E3.5 embryos (mouse (endogenous in E3.5 embryos)) (UniProt Q62296); assay: proximity ligation; Duolink in situ PLA on fixed E3.5 mouse embryos with antibodies against the endogenous proteins; anti-Tead4 alone as control
[2] = biological target: Myc-mSsrp1 (mouse) (UniProt Q08943); assay: co-IP; tagged proteins co-expressed in 293T cells; lysis buffer 10 mM HEPES pH 7.6, 250 mM NaCl, 0.1% NP40, 5 mM EDTA; IP with tag antibody and protein-G PLUS-agarose, 30 min at 4 °C; blot with tag antibodies; with or without co-expressed HA-Yap or Myc-NICD1

Row | binding [1] | binding [2] | Molecule
1 | binds |  | Yap, endogenous in mouse E3.5 embryos (from UniProt P46938 1-488)
2 |  | binds | GFP-SBNO1 (human Strawberry Notch 1, GFP-tagged) (protein, UniProt A3KN83 1-1393) MVEPGQDLLLAALSESGISPNDLFDIDGGDAGLATPMPTPSVQQSVPLSALELGLETEAAVPVKQEPETVPTPALLNVRQQPPSTTTFVLNQINHLPPLGSTIVMTKTPPVTTNRQTITLTKFIQTTASTRPSVSAPTVRNAMTSAPSKDQVQLKDLLKNNSLNELMKLKPPANIAQPVATAATDVSNGTVKKESSNKEGARMWINDMKMRSFSPTMKVPVVKEDDEPEEEDEEEMGHAETYAEYMPIKLKIGLRHPDAVVETSSLSSVTPPDVWYKTSISEETIDNGWLSALQLEAITYAAQQHETFLPNGDRAGFLIGDGAGVGKGRTIAGIIYENYLLSRKRALWFSVSNDLKYDAERDLRDIGAKNILVHSLNKFKYGKISSKHNGSVKKGVIFATYSSLIGESQSGGKYKTRLKQLLHWCGDDFDGVIVFDECHKAKNLCPVGSSKPTKTGLAVLELQNKLPKARVVYASATGASEPRNMAYMNRLGIWGEGTPFREFSDFIQAVERRGVGAMEIVAMDMKLRGMYIARQLSFTGVTFKIEEVLLSQSYVKMYNKAVKLWVIARERFQQAADLIDAEQRMKKSMWGQFWSAHQRFFKYLCIASKVKRVVQLAREEIKNGKCVVIGLQSTGEARTLEALEEGGGELNDFVSTAKGVLQSLIEKHFPAPDRKKLYSLLGIDLTAPSNNSSPRDSPCKENKIKKRKGEEITREAKKARKVGGLTGSSSDDSGSESDASDNEESDYESSKNMSSGDDDDFNPFLDESNEDDENDPWLIRKDHKKNKEKKKKKSIDPDSIQSALLASGLGSKRPSFSSTPVISPAPNSTPANSNTNSNSSLITSQDAVERAQQMKKDLLDKLEKLAEDLPPNTLDELIDELGGPENVAEMTGRKGRVVSNDDGSISYESRSELDVPVEILNITEKQRFMDGDKNIAIISEAASSGISLQADRRAKNQRRRVHMTLELPWSADRAIQQFGRTHRSNQVTAPEYVFLISELAGEQRFASIVAKRLESLGALTHGDRRATESRDLSRFNFDNKYGRNALEIVMKSIVNLDSPMVSPPPDYPGEFFKDVRQGLIGVGLINVEDRSGILTLDKDYNNIGKFLNRILGMEVHQQNALFQYFADTLTAVVQNAKKNGRYDMGILDLGSGDEKVRKSDVKKFLTPGYSTSGHVELYTISVERGMSWEEATKIWAELTGPDDGFYLSLQIRNNKKTAILVKEVNPKKKLFLVYRPNTGKQLKLEIYADLKKKYKKVVSDDALMHWLDQYNSSADTCTHAYWRGNCKKASLGLVCEIGLRCRTYYVLCGSVLSVWTKVEGVLASVSGTNVKMQIVRLRTEDGQRIVGLIIPANCVSPLVNLLSTSDQSQQLAVQQKQLWQQHHPQSITNLSNA
3 | binds |  | Sbno1 (Strawberry Notch 1), endogenous in mouse E3.5 embryos (protein, UniProt Q689Z5 1-1390) MVEPGQDLLLAALSESGISPNDLFDVDGGDAGLATPTPPSVQQSVPLSALELGLETEAAVPVKQEPEPMSTPALLNVRQPPSTTTFVLNQINQLPTLGSTIVMTKTPPATTNRQTITLTKFIQTTANTRPSVSAPAVRNAMPAAPSKDQVQLKDLLKNNSLNELMKLKPPANIAQPVATAATDVSNGAVKKESSNKEVARIWINDMKMRSFSPTMKVPVVKEEDEPEEEDEEEMGHAETYAEYMPIKLKIGLRHPDAVVETSSLSSVTPPDVWYKTSISEETIDNGWLSALQLEAVTYAAQQHETFLPNGDRAGFLIGDGAGVGKGRTIAGIIYENYLLSRKRALWFSVSNDLKYDAERDLRDIGAKNILVHSLNKFKYGKISSKHNGSVKKGVIFATYSSLIGESQSGGKYKTRLKQLLHWCGDDFDGVIVFDECHKAKNLCPVGSSKPTKTGLAVLELQNKLPKARVVYASATGASEPRNMAYMNRLGIWGEGTPFREFSDFIQAVERRGVGAMEIVAMDMKLRGMYIARQLSFTGVTFKIEEVLLSQSYVKMYNKAVKLWVIARERFQQAADLIDAEQRMKKSMWGQFWSAHQRFFKYLCIASKVKRVVQLAREEIKNGKCVVIGLQSTGEARTLEALEEGGGELNDFVSTAKGVLQSLIEKHFPAPDRKKLYSLLGIDLTAPSNNSSPRDSPCKENKIKKRKGEEITREAKKARKVGGLTGSSSDDSGSESVSDNDESDYESSKNMSSGDDDDFNPFRDESSEDNEDDPWLIRKDHKKSKDKKKKKSIDPDSIQSALLASGLGSKRPSFSSAPVISPASNSAPANSNSNSNSSLVTSQDAVERAQQMKKDLLDKLEKLAEDLPPNTLDELIDELGGPENVAEMTGRKGRVVSNDDGSISYESRSELDVPVEILNITEKQRFMDGDKNIAIISEAASSGISLQADRRAKNQRRRVHMTLELPWSADRAIQQFGRTHRSNQVTAPEYVFLISELAGEQRFASIVAKRLEGLGALTHGDRRATESRDLSRFNFDNKYGRNALEIVMKSIVNLDSPMVSPPPDYPGEFFKDVRQGLIGVGLINVEDRSGILTLDKDYNNIGKFLNRILGMEVHQQNALFQYFADTLTAVVQNAKKSGRYDMGILDLGSGDEKVRKSDVKKFLTPGYSTSGHVELYTISVERGMSWEEATKIWAELTGPDDGFYLSLQIRNNKKTAILVKEVNPKKKLFLIYRPNTGKQLKLEIYADLKKKYKKVVSDDALVHWLDQYNSSADTCTHAYWRGNCKKASLGLVCEIGLRCRTYYVLCGSVLSVWTKVEGVLASVSGTNVKMQIVRLRTEDGQRIVGLIIPANCVSPLVNLLSTSDQSQQLAVQQKQLWQQHHPQSITNLSNL
